From article doi:10.1101/2023.04.19.537577
These are yes or no findings as the source states them, for the method shown. For some assays here: In cells and extracts the contact can be indirect. Some binding calls cover weakened binding; strength is not graded here. Tags and fused reporters may be left off the sequences shown. Each block holds one molecule with its values, some of them ahead of it.

Protein sequences, listed by entry. Tags and fused reporters are not part of them.
UniProt P50552: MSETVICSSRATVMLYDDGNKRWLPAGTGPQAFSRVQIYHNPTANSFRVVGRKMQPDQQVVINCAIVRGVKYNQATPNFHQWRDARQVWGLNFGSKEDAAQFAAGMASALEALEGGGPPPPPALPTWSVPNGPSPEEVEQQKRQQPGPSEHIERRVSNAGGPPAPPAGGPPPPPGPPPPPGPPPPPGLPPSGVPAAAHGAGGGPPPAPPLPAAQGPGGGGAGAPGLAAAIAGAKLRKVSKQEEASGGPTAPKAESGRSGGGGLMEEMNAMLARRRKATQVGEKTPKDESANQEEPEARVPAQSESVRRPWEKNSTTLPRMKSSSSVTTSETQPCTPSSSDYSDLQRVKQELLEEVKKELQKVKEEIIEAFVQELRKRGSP

Assays:
GST-PP1R6 = biological target: T1, GST-PP1R6 (UniProt O95685); assay: pull-down
T1 sequence: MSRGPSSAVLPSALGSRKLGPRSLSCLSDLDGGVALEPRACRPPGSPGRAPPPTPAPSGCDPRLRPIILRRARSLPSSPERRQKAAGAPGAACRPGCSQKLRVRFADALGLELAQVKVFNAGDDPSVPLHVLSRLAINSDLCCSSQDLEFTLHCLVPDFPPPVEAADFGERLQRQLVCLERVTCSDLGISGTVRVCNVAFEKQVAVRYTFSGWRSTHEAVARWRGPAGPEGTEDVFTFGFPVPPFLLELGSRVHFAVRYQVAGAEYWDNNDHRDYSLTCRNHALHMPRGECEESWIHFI

[1] = biological target: His6-tagged VASP (vasodilator-stimulated phosphoprotein), expressed in HEK cells (UniProt P50552); assay: co-IP

binding (GST-PP1R6): binds
Molecule: purified His6-VASP (recombinant VASP) (from UniProt P50552 1-380)

binding [1]: binds
B1: human flag-tagged PP1R6 (protein phosphatase 1 regulatory subunit 6) (protein, UniProt O95685 1-299)
chain: T1 sequence
